From the supplement of paper PMC10060354, “Discovery of a small molecule ligand of FRS2 that inhibits invasion and tumor growth” (Cellular Oncology, 2022)
Many values rest on one well or one pass, so single values are uncertain.

Protein sequences, listed by entry. Tags and fused reporters are not part of them. Lines headed by an entry give the natural chain unless they say otherwise; changes in a name come on top.
UniProt P30043: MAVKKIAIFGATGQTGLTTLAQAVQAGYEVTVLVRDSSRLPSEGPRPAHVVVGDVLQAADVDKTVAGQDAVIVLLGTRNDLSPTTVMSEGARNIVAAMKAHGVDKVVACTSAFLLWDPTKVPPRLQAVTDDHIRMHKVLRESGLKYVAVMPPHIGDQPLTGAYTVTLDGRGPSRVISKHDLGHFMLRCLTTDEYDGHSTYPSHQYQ
UniProt O75145: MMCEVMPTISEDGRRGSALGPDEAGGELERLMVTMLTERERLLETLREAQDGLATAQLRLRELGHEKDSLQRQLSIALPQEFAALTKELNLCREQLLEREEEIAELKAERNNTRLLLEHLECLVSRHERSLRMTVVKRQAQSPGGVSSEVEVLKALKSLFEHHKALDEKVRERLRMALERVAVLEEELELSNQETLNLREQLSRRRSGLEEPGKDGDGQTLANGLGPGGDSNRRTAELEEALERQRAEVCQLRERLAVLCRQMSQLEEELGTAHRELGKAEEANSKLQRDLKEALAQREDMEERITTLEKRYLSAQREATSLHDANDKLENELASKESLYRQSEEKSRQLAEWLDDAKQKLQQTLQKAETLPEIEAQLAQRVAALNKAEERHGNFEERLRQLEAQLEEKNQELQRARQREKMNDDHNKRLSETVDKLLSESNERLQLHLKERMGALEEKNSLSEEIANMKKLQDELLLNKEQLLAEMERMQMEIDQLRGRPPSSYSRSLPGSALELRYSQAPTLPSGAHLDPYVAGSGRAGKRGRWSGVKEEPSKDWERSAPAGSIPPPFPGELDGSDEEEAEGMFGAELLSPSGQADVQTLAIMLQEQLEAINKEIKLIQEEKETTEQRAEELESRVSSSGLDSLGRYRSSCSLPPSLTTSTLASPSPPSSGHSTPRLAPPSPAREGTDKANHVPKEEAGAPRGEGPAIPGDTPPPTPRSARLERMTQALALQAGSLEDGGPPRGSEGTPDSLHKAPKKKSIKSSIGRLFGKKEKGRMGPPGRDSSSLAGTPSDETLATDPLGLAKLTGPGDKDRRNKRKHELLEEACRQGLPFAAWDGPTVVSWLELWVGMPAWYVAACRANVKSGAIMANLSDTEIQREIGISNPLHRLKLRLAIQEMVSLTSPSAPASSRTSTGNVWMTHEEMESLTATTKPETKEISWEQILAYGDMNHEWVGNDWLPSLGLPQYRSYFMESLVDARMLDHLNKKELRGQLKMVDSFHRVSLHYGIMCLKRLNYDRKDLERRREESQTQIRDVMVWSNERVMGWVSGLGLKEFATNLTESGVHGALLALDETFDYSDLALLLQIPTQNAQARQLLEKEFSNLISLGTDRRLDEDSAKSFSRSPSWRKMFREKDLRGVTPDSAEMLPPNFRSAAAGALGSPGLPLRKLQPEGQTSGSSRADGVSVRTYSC
UniProt P67936, whole entry: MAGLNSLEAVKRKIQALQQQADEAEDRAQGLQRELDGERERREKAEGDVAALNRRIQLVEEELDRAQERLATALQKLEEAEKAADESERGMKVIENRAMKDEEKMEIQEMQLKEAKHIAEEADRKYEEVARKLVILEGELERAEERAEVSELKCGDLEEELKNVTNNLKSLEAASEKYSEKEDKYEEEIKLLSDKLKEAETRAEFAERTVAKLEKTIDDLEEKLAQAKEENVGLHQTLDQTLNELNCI
UniProt A6ZKI3: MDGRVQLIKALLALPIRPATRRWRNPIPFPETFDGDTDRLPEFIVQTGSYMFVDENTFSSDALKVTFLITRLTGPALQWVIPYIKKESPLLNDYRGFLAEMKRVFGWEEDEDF
UniProt Q8IVF7, whole entry: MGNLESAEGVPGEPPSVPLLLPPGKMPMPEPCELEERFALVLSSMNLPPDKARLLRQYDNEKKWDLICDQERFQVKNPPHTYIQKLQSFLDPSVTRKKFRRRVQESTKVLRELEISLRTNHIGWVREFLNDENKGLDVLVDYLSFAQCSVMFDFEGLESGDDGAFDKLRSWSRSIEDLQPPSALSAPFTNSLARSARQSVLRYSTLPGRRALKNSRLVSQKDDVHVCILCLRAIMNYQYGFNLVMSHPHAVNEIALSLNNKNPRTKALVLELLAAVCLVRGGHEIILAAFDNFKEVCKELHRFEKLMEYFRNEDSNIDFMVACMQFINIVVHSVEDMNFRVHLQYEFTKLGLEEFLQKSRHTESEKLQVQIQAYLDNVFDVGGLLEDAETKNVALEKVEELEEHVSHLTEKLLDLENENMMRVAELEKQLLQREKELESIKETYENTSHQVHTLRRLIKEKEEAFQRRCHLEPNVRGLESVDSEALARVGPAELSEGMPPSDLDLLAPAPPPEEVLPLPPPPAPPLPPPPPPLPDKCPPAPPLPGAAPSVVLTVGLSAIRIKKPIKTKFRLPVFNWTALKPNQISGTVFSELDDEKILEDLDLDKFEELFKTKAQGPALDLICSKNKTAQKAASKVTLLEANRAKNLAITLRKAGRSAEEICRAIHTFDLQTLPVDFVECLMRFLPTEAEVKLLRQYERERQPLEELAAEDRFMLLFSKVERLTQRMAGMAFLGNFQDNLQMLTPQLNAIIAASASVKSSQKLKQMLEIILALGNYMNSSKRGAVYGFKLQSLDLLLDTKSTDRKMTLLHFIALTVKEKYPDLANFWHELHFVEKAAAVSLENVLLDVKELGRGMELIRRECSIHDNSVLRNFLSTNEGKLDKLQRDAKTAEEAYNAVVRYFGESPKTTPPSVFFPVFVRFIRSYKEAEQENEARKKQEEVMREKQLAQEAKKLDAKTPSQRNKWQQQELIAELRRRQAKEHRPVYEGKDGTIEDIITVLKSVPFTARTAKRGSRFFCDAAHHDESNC
UniProt Q96D05: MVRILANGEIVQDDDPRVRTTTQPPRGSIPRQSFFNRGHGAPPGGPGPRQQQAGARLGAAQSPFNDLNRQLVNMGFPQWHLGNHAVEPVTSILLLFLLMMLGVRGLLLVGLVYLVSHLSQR
UniProt P22392, whole entry: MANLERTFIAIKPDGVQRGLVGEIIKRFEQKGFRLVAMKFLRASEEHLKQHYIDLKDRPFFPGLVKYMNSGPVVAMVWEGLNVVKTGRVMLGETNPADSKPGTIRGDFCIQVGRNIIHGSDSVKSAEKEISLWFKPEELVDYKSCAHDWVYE
UniProt Q8IWB7: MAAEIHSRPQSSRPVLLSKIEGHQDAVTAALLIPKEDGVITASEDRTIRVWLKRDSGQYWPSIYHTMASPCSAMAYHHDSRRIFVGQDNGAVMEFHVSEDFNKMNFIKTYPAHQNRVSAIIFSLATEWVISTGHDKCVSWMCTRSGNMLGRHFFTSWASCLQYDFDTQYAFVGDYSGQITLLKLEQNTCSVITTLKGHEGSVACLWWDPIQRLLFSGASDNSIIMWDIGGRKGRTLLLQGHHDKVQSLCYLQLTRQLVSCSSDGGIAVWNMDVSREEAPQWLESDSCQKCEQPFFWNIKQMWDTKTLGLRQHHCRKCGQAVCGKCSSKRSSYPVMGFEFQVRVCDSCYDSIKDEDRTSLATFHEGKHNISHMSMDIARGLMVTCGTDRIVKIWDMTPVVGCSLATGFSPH
UniProt O95347, whole entry: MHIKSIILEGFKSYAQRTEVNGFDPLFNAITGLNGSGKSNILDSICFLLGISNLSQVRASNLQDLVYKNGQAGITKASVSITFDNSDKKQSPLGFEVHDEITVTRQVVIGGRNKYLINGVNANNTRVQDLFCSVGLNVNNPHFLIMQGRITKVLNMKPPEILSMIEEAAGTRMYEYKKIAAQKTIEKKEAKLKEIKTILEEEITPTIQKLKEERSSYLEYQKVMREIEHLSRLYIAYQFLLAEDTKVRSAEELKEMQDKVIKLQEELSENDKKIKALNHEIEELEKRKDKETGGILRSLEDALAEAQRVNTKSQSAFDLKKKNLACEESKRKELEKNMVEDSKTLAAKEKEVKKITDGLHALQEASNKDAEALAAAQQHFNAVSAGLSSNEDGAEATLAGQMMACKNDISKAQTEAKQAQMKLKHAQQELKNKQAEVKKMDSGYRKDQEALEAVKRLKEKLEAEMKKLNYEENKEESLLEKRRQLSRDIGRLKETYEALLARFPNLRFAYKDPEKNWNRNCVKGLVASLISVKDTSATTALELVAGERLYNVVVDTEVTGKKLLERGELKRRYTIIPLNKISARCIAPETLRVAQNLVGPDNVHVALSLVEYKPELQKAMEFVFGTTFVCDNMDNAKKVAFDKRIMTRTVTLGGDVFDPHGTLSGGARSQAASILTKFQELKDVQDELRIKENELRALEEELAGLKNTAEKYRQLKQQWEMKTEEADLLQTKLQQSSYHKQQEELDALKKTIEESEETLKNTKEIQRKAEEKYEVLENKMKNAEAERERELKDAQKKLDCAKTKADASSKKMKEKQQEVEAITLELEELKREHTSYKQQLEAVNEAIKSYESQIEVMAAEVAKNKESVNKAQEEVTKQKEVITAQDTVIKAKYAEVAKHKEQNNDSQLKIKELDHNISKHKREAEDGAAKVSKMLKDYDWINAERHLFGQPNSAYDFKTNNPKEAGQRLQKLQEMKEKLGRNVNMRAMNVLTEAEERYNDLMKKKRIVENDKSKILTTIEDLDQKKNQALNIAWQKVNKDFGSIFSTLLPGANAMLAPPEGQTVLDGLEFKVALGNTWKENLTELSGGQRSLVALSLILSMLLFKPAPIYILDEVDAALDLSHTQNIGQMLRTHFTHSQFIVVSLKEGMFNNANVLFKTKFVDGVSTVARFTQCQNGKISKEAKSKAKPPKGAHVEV
UniProt P06331, whole entry: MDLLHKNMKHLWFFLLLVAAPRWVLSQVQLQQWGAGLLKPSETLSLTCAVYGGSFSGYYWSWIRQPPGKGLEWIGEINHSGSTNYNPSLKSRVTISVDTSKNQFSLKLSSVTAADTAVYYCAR
UniProt Q8TF74: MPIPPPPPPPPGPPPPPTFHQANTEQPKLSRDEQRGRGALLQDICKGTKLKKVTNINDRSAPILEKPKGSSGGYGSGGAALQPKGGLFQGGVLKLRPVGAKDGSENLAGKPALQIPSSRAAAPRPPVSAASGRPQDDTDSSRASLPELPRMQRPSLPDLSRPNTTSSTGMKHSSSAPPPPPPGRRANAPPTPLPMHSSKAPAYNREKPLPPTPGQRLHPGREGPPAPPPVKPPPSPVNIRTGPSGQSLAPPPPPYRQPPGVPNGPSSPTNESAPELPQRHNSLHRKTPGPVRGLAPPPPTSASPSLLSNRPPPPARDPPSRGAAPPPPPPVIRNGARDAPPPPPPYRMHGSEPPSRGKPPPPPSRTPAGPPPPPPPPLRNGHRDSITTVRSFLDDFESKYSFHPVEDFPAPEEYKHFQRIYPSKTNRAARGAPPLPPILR
UniProt Q53FV1: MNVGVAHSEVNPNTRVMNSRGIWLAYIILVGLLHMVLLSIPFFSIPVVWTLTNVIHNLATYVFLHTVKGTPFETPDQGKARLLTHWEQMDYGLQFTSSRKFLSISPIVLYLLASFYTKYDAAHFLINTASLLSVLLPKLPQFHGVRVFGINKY
UniProt Q7Z4H7: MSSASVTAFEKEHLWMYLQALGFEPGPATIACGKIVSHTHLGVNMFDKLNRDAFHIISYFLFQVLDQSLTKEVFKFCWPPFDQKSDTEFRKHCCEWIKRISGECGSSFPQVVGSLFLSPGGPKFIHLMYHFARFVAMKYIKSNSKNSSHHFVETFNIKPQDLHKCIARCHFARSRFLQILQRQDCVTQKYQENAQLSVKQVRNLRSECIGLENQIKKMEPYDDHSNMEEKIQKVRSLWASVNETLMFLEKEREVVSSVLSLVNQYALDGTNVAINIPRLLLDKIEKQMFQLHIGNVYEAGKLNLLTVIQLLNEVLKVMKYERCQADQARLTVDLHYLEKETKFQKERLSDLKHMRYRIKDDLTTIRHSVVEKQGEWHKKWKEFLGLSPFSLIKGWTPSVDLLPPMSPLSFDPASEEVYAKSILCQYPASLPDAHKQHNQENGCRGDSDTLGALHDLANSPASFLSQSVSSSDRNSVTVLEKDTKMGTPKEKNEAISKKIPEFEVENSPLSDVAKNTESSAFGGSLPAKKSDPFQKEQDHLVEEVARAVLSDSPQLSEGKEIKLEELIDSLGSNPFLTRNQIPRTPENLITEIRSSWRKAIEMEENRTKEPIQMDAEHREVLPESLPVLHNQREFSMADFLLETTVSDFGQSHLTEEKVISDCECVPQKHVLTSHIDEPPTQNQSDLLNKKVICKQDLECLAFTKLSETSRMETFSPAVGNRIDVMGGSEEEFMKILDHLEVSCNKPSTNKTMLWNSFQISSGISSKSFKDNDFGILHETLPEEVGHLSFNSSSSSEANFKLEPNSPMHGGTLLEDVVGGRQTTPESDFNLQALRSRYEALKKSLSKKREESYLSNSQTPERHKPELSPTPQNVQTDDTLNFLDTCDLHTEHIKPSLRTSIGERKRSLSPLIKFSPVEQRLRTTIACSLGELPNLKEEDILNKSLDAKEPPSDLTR
UniProt Q9BRX8: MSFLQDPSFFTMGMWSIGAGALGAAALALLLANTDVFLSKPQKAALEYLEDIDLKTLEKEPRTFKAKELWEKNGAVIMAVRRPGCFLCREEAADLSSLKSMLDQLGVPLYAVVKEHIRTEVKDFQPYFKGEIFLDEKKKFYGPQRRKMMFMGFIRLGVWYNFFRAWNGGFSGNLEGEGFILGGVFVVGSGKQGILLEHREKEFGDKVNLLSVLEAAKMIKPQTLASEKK

Compound: [O-][N+](C(C1=C(C(O)=C2)NC(C(C=C3)=CC=C3Cl)C4C1C=CC4)=C2Cl)=O
Assay: melting temperature shift (compound 7 minus DMSO); higher = compound stabilises the protein
Settings: 10 µM
Experimental: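 Thermal proteome profiling (TMT mass spectrometry) in intact DAOY medulloblastoma cells or DAOY lysates treated with 10 µM compound 7 or DMSO, heated at 10 temperatures from 40.5 to 73.8 °C for 3 min. Melting curves were fitted with the Bioconductor TPP package, and the melting point difference between compound and vehicle is reported per protein (single curve per condition).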

[1] = system: DAOY cell lysate, treatment time: 20 min, 4 °C
[2] = system: intact DAOY cells, treatment time: 90 min, 37 °C

BLVRB (UniProt P30043)
melting temperature shift [1]: -1.09 °C
melting temperature shift [2]: 0.0687 °C

RANBP9 (UniProt Q96S59)
melting temperature shift [1]: -0.0989 °C
melting temperature shift [2]: -0.637 °C

NGLY1 (UniProt Q96IV0)
melting temperature shift [1]: 0.497 °C

UniProt O75145
melting temperature shift [2]: 0.00924 °C

RRAS2 (UniProt P62070)
melting temperature shift [1]: 0.794 °C
melting temperature shift [2]: -1.83 °C

TSR3 (UniProt Q9UJK0)
melting temperature shift [1]: -0.293 °C

ACTR1A (UniProt P61163)
melting temperature shift [1]: -0.499 °C
melting temperature shift [2]: 0.0686 °C

SPTLC2 (UniProt O15270)
melting temperature shift [1]: 1.78 °C
melting temperature shift [2]: -0.152 °C

TPM4 (UniProt P67936)
melting temperature shift [1]: -2.59 °C

TNNI3K (UniProt Q59H18)
melting temperature shift [2]: -1.81 °C

RBM19 (UniProt Q9Y4C8)
melting temperature shift [1]: 0.783 °C

KIAA2013 (UniProt Q8IYS2)
melting temperature shift [1]: 0.0301 °C
melting temperature shift [2]: 0.775 °C

UniProt A5D8V6
melting temperature shift [1]: -0.156 °C

RSU1 (UniProt Q15404)
melting temperature shift [1]: -0.659 °C
melting temperature shift [2]: 0.0308 °C

UniProt A6ZKI3
melting temperature shift [1]: -0.139 °C

GADD45GIP1 (UniProt Q8TAE8)
melting temperature shift [1]: -1.25 °C
melting temperature shift [2]: -2.36 °C

STXBP4 (UniProt Q6ZWJ1)
melting temperature shift [2]: -2.76 °C

PUM3 (UniProt Q15397)
melting temperature shift [1]: 0.522 °C
melting temperature shift [2]: 0.955 °C

UniProt Q8IVF7
melting temperature shift [1]: -0.0975 °C
melting temperature shift [2]: 0.374 °C

CARS (UniProt P49589)
melting temperature shift [1]: -0.621 °C
melting temperature shift [2]: -0.91 °C

SAR1A (UniProt Q9NR31)
melting temperature shift [1]: 0.251 °C
melting temperature shift [2]: -0.283 °C

NOB1 (UniProt Q9ULX3)
melting temperature shift [1]: -1.41 °C
melting temperature shift [2]: -0.484 °C

BRI3BP (UniProt Q8WY22)
melting temperature shift [1]: -0.101 °C

FKBP8 (UniProt Q14318)
melting temperature shift [1]: 0.783 °C
melting temperature shift [2]: -0.48 °C

PHF10 (UniProt Q8WUB8)
melting temperature shift [1]: -1.04 °C

MOV10 (UniProt Q9HCE1)
melting temperature shift [1]: -0.325 °C
melting temperature shift [2]: 0.261 °C

UniProt Q96D05
melting temperature shift [1]: 2.49 °C

TMED2 (UniProt Q15363)
melting temperature shift [1]: 0.413 °C
melting temperature shift [2]: -1.29 °C

LYAR (UniProt Q9NX58)
melting temperature shift [1]: 0.395 °C
melting temperature shift [2]: -1.07 °C

EHBP1L1 (UniProt Q8N3D4)
melting temperature shift [1]: 1.02 °C
melting temperature shift [2]: 2.33 °C

HK1 (UniProt P19367)
melting temperature shift [1]: 0.134 °C
melting temperature shift [2]: -0.624 °C

DCK (UniProt P27707)
melting temperature shift [1]: -0.407 °C
melting temperature shift [2]: -0.235 °C

REPS1 (UniProt Q96D71)
melting temperature shift [1]: -0.862 °C
melting temperature shift [2]: 0.188 °C

UAP1 (UniProt Q16222)
melting temperature shift [1]: -0.331 °C
melting temperature shift [2]: -0.398 °C

UniProt P22392
melting temperature shift [1]: -0.172 °C
melting temperature shift [2]: -0.491 °C

UniProt P03886
melting temperature shift [1]: 0.444 °C
melting temperature shift [2]: 0.15 °C

MDN1 (UniProt Q9NU22)
melting temperature shift [1]: -0.849 °C
melting temperature shift [2]: -2.55 °C

WDFY1 (UniProt Q8IWB7)
melting temperature shift [1]: 2.66 °C
melting temperature shift [2]: 2.68 °C

SMC2 (UniProt O95347)
melting temperature shift [1]: -0.25 °C
melting temperature shift [2]: -0.652 °C

UniProt P06331
melting temperature shift [2]: -2.27 °C

FTO (UniProt Q9C0B1)
melting temperature shift [1]: -0.132 °C
melting temperature shift [2]: -0.825 °C

WIPF2 (UniProt Q8TF74)
melting temperature shift [1]: -0.58 °C

SRSF3 (UniProt P84103)
melting temperature shift [1]: 0.532 °C
melting temperature shift [2]: -0.0529 °C

UniProt Q53FV1
melting temperature shift [1]: 0.74 °C
melting temperature shift [2]: -0.609 °C

LTV1 (UniProt Q96GA3)
melting temperature shift [1]: 0.664 °C
melting temperature shift [2]: 0.953 °C

AP1S1 (UniProt P61966)
melting temperature shift [1]: 0.196 °C
melting temperature shift [2]: -0.181 °C

UniProt Q8IX05
melting temperature shift [1]: 0.987 °C

CKB (UniProt P12277)
melting temperature shift [1]: -0.646 °C
melting temperature shift [2]: -1.17 °C

RBM33 (UniProt Q96EV2)
melting temperature shift [1]: -1.76 °C

UniProt P39060
melting temperature shift [1]: -0.312 °C
melting temperature shift [2]: -0.98 °C

LSM12 (UniProt Q3MHD2)
melting temperature shift [1]: -0.176 °C
melting temperature shift [2]: 0.163 °C

MASTL (UniProt Q96GX5)
melting temperature shift [1]: 0.09 °C

HSPBP1 (UniProt Q9NZL4)
melting temperature shift [1]: -0.839 °C
melting temperature shift [2]: 0.601 °C

ANKLE2 (UniProt Q86XL3)
melting temperature shift [1]: 0.685 °C
melting temperature shift [2]: -0.0517 °C

CENPH (UniProt Q9H3R5)
melting temperature shift [1]: -0.871 °C

POLD2 (UniProt P49005)
melting temperature shift [1]: -0.486 °C
melting temperature shift [2]: -1.65 °C

HAUS6 (UniProt Q7Z4H7)
melting temperature shift [1]: -0.366 °C
melting temperature shift [2]: -2.39 °C

FAM213A (UniProt Q9BRX8)
melting temperature shift [1]: 1.93 °C
melting temperature shift [2]: 0.657 °C
